# Cleaved PARP after 72 h of treatment

From a melanoma drug combination screen (doi:10.1371/journal.pone.0140310); values rounded.

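Human melanoma cell lines in 1,536-well plates were treated with two drugs together for 72 h, then fixed, stained and imaged. Values are the share of nuclei positive for cleaved PARP as a percentage of the same share in the DMSO control: 100 is the control level, higher means more apoptosis. Concentrations were fixed for each drug; these are the higher of two levels. No replicate spread is given; individual values may be noisy. Basal and induced levels differ widely between cell lines.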 This is part of the screen, not chosen by result. A dash means that no value is listed here.

Every entry is a combination with cediranib at 2 µM: COc1cc2c(Oc3ccc4[nH]c(C)cc4c3F)ncnc2cc1OCCCN1CCCC1

| Second drug | IST-MEL1 | A375 | SK-MEL-5 | 501mel | C32 | WM3619 |
|---|---|---|---|---|---|---|
| CCCS(=O)(=O)Nc1ccc(F)c(C(=O)c2c[nH]c3ncc(Cl)cc23)c1F at 0.4 µM | 120 | - | 126 | - | 41.6 | 122 |
| O=C(O)c1ccc(-c2c[nH]c3ncc(-c4ccccc4)cc23)cc1C1CCCC1 at 0.8 µM | 83.6 | - | 200 | - | 256 | 131 |
| CN(NC(=O)CC(=O)NN(C)C(=S)c1ccccc1)C(=S)c1ccccc1 at 0.03 µM | 164 | - | 74.8 | - | 1870 | 648 |
| CCN(CC)CCCCNc1ncc2cc(-c3cc(OC)cc(OC)c3)c(NC(=O)NC(C)(C)C)nc2n1 at 0.5 µM | 59.4 | 11.7 | 113 | 152 | 86.0 | 112 |
| CC(=O)c1c(C)c2cnc(Nc3ccc(N4CCNCC4)cn3)nc2n(C2CCCC2)c1=O at 0.2 µM | 45.7 | - | 73.1 | - | 90.3 | 108 |
| COc1ccc(COc2ccc(Cc3cnc(N)nc3N)cc2OC)cc1 at 5 µM | 131 | 23.8 | 126 | 123 | 90.3 | 114 |
| Cn1cc(C2=C(c3cn(C4CCN(Cc5ccccn5)CC4)c4ccccc34)C(=O)NC2=O)c2ccccc21 at 4 µM | 92.9 | - | 161 | - | 178 | 94.9 |
| COc1cc(Nc2ncc(F)c(Nc3ccc4c(n3)NC(=O)C(C)(C)O4)n2)cc(OC)c1OC at 2 µM | 176 | - | 223 | - | 188 | 110 |
| Nc1cccc2c1CN(C1CCC(=O)NC1=O)C2=O (stereo not given) at 5 µM | 96.5 | - | 134 | - | 67.2 | 213 |
| COC(=O)c1sccc1S(=O)(=O)Nc1ccc(Nc2ccccc2)cc1OC at 5 µM | 49.9 | 66.4 | 168 | 251 | 88.7 | 120 |
| OCCn1cc(-c2cnc3nnn(Cc4ccc5ncccc5c4)c3n2)cn1 at 5 µM | 107 | - | 190 | - | 535 | 95.4 |
| Nc1ccn([C@@H]2O[C@H](CO)[C@@H](O)C2(F)F)c(=O)n1 at 0.002 µM | 617 | - | 57.1 | - | 98.0 | 146 |
| COc1cc([C@@H]2c3cc4c(cc3[C@@H](O[C@@H]3O[C@@H]5CO[C@@H](C)O[C@H]5[C@H](O)[C@H]3O)[C@H]3COC(=O)[C@H]23)OCO4)cc(OC)c1O at 0.1 µM | 275 | - | 124 | - | 453 | 133 |
| CCc1ccc(CCOc2ccc(CC3SC(=O)NC3=O)cc2)nc1 (stereo not given) at 10 µM | 373 | 116 | 183 | 110 | 102 | 108 |
| Cc1cc([N+](=O)[O-])ccc1NS(=O)(=O)c1cc(Cl)ccc1Cl at 5 µM | 124 | 97.3 | 165 | 44.9 | 194 | 124 |
| CCN(CC)CCNC(=O)c1c(C)[nH]c(/C=C2\C(=O)Nc3ccc(F)cc32)c1C at 2 µM | 74.0 | - | 131 | - | 95.5 | 130 |
| Nc1nc(F)nc2c1ncn2[C@@H]1O[C@H](CO)[C@@H](O)[C@@H]1O at 1 µM | 32.4 | - | 4180 | - | 144 | 195 |
| COc1cc(N2CCC(N3CCN(C)CC3)CC2)ccc1Nc1ncc(Cl)c(Nc2ccccc2S(=O)(=O)C(C)C)n1 at 0.4 µM | 180 | 283 | 129 | 239 | 262 | 127 |
| Cc1cc(Nc2cc(N3CCN(C)CC3)nc(Sc3ccc(NC(=O)C4CC4)cc3)n2)n[nH]1 at 0.03 µM | 104 | - | 322 | - | 232 | 145 |
| C#Cc1cccc(Nc2ncnc3cc(OCCOC)c(OCCOC)cc23)c1 at 4 µM | 631 | - | 85.0 | - | 41.8 | 102 |
| Cc1ccc(NC(=O)c2cccc(N(C)C)c2)cc1NC(=O)c1ccc(O)cc1 at 10 µM | 286 | - | 135 | - | 93.9 | 74.2 |
| CCCCCCCCCCCCCCCCCCOP(=O)([O-])OC1CC[N+](C)(C)CC1 at 2 µM | 91.5 | - | 64.1 | - | 58.7 | 83.1 |
| COc1ccc(-c2ccc3c(N4CCOCC4)nc(N4C[C@@H](C)O[C@@H](C)C4)nc3n2)cc1CO at 0.1 µM | 105 | 35.3 | 659 | 214 | 96.8 | 254 |
| O=C(Nc1ccccc1)c1cc([N+](=O)[O-])ccc1Cl at 10 µM | 128 | 26.2 | 52.3 | 270 | 130 | 213 |
| Oc1nc(-c2ccc(C(F)(F)F)cc2)nc2c1CSCC2 at 10 µM | 29.5 | 7.0 | 94.1 | 53.3 | 89.4 | 149 |
| Cn1nnc2c(C(N)=O)ncn2c1=O at 10 µM | 90.8 | - | 54.6 | - | 218 | 107 |
| CO[C@@H]1[C@H](N(C)C(=O)c2ccccc2)C[C@H]2O[C@]1(C)n1c3ccccc3c3c4c(c5c6ccccc6n2c5c31)C(=O)NC4 at 0.4 µM | 280 | - | 132 | - | 76.7 | 105 |
| CN1CCN(c2ccc3nc(-c4c(N)c5c(F)cccc5[nH]c4=O)[nH]c3c2)CC1 at 0.5 µM | 174 | - | 180 | - | 104 | 104 |
| Cc1nc(Nc2ncc(C(=O)Nc3c(C)cccc3Cl)s2)cc(N2CCN(CCO)CC2)n1 at 0.02 µM | 138 | - | 176 | - | 406 | 347 |
| Cc1cc(N2CCOCC2)cc2[nH]c(-c3c(NC[C@@H](O)c4cccc(Cl)c4)cc[nH]c3=O)nc12 at 1 µM | 71.5 | - | 78.9 | - | 116 | 112 |
| O=C(Oc1ccc([N+](=O)[O-])cc1)N1CCC(C(O)(c2ccc3c(c2)OCO3)c2ccc3c(c2)OCO3)CC1 at 5 µM | 26.9 | 133 | 39.5 | 70.9 | 106 | 89.3 |
| COc1ccc(C2=N[C@@H](c3ccc(Cl)cc3)[C@@H](c3ccc(Cl)cc3)N2C(=O)N2CCNC(=O)C2)c(OC(C)C)c1 at 0.5 µM | 77.7 | - | 126 | - | 233 | 67.4 |
| C=CCNC1=C2C[C@@H](C)C[C@H](OC)[C@H](O)[C@@H](C)/C=C(\C)[C@H](OC(N)=O)[C@@H](OC)/C=C\C=C(/C)C(=O)NC(=CC1=O)C2=O at 0.01 µM | 170 | - | 306 | - | 815 | 176 |
| Cn1cnc2c(F)c(Nc3ccc(Br)cc3Cl)c(C(=O)NOCCO)cc21 at 0.075 µM | 154 | - | 52.7 | - | 154 | 85.8 |
| Cc1ccc(Nc2nccc(N(C)c3ccc4c(C)n(C)nc4c3)n2)cc1S(N)(=O)=O at 2 µM | 132 | - | 60.2 | - | 84.0 | 58.2 |
| Cn1c(Nc2ccc(C(F)(F)F)cc2)nc2cc(Oc3ccnc(-c4ncc(C(F)(F)F)[nH]4)c3)ccc21 at 0.4 µM | 83.1 | - | 2180 | - | 132 | 204 |
| O=C(Nc1cc(C(F)(F)F)cc(C(F)(F)F)c1)c1cc(Cl)ccc1O at 0.08 µM | 42.0 | - | 158 | - | 100 | 113 |
| CO[C@H]1C[C@@H]2CC[C@@H](C)[C@@](O)(O2)C(=O)C(=O)N2CCCC[C@H]2C(=O)O[C@H]([C@H](C)C[C@@H]2CC[C@@H](OCCO)[C@H](OC)C2)CC(=O)[C@H](C)/C=C(\C)[C@@H](O)[C@@H](OC)C(=O)[C@H](C)C[C@H](C)/C=C/C=C/C=C/1C at 0.1 µM | 40.2 | - | 189 | - | 347 | 145 |

The last 4 entries again:

| Second drug | IST-MEL1 | A375 | SK-MEL-5 | 501mel | C32 | WM3619 |
|---|---|---|---|---|---|---|
| Cc1ccc(Nc2nccc(N(C)c3ccc4c(C)n(C)nc4c3)n2)cc1S(N)(=O)=O at 2 µM | 132 | - | 60.2 | - | 84.0 | 58.2 |
| Cn1c(Nc2ccc(C(F)(F)F)cc2)nc2cc(Oc3ccnc(-c4ncc(C(F)(F)F)[nH]4)c3)ccc21 at 0.4 µM | 83.1 | - | 2180 | - | 132 | 204 |
| O=C(Nc1cc(C(F)(F)F)cc(C(F)(F)F)c1)c1cc(Cl)ccc1O at 0.08 µM | 42.0 | - | 158 | - | 100 | 113 |
| CO[C@H]1C[C@@H]2CC[C@@H](C)[C@@](O)(O2)C(=O)C(=O)N2CCCC[C@H]2C(=O)O[C@H]([C@H](C)C[C@@H]2CC[C@@H](OCCO)[C@H](OC)C2)CC(=O)[C@H](C)/C=C(\C)[C@@H](O)[C@@H](OC)C(=O)[C@H](C)C[C@H](C)/C=C/C=C/C=C/1C at 0.1 µM | 40.2 | - | 189 | - | 347 | 145 |